We go through one substance from article PMC3425481.

Protein sequences, listed by entry. Tags and fused reporters are not part of them.
UniProt P84022: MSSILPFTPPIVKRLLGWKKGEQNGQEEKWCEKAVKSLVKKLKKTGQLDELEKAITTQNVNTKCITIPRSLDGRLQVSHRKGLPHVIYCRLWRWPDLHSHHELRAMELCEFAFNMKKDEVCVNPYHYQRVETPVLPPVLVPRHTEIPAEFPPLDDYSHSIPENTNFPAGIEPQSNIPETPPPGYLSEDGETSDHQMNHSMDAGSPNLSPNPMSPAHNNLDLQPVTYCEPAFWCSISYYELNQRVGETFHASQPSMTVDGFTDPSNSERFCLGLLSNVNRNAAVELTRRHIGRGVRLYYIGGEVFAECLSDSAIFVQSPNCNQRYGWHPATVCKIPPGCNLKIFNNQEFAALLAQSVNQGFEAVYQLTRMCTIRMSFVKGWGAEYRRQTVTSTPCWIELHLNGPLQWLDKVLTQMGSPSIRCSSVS
UniProt Q9HAU4: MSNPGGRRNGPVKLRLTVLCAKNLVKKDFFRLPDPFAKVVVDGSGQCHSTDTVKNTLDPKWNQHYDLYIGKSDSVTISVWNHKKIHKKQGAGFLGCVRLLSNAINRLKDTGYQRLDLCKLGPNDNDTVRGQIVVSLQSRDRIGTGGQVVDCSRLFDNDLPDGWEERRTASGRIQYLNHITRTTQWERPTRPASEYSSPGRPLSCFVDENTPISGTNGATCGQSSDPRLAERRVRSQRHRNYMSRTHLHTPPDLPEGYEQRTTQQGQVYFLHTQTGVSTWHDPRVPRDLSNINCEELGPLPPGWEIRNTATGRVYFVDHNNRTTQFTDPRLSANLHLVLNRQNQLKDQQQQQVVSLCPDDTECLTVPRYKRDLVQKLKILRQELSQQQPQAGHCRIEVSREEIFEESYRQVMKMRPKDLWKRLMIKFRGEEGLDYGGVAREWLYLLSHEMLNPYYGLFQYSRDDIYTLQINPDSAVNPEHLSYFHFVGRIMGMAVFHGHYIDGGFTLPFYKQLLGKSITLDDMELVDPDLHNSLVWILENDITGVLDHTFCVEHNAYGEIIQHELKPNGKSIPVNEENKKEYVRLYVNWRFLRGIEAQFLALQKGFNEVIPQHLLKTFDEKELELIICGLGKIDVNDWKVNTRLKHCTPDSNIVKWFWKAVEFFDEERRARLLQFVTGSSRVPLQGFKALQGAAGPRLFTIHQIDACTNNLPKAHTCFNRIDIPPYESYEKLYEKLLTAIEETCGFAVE

Results are given in words; binding and its absence hold for the method and conditions named. In cells and extracts the contact can be indirect. Some results given as binding are weak or reduced against the parent protein; the word gives no strength.

This test addresses Smad3 phosphorylated at the C-terminus (pSmad3C) (human (endogenous in ES-2)) (UniProt P84022). Kind of test: co-IP; immunoprecipitation with α-pSmad3C (overnight, 4°C) and protein A-sepharose from lysates of 10^8 ES-2 cells treated with TGF-β1 (1 h) or 2ME2 (16 h); 420 mM NaCl, 50 mM Hepes pH 7.8, 5 mM EDTA, 1% NP-40, 3% DTT; blots with α-Ski, α-Smurf2, α-tSmad2/3; control: sepharose beads alone.

Turning to Smurf2 (from UniProt Q9HAU4 1-748), the binding result is “binds”.
